Measurements taken from publication PMC8232204.
No constants are given. Whether binding was seen depends on the method and setting. Binding seen in cells or lysates may run through a third protein. Some results given as binding are weak or reduced against the parent protein; the word gives no strength. Tags and fused reporters may be left off the sequences shown.

Assays:
Assay in all cases: co-IP; whole-cell extracts (5 mg total protein) of vegetatively growing S. pombe strains; anti-HA (12CA5) and protein A sepharose, 4 h at 4 °C; washes up to 500 mM NaCl; blots with anti-HA (Pmk1–HA) and anti-GFP (Pek1–GFP)
[1] = target: T1, Pmk1^Sj–HA (S. japonicus wild-type Pmk1 construct) (S. japonicus) (UniProt B6K747)
T1 sequence: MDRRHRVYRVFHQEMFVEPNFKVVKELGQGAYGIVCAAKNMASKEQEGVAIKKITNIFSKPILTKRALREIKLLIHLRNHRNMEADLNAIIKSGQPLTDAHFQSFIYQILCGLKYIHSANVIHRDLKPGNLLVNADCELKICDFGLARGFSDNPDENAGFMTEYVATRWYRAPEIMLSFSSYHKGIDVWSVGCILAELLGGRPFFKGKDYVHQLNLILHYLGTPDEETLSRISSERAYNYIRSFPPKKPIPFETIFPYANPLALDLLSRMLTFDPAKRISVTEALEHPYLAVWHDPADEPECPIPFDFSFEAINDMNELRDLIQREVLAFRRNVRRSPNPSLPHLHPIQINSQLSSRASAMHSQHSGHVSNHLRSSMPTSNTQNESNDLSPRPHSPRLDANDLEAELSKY

[2] = target: T2, Pmk1^Sp (Δ82-105)–HA (S. pombe Pmk1 version lacking the conserved N-lobe motif) (S. pombe) (UniProt Q92398)
T2 sequence: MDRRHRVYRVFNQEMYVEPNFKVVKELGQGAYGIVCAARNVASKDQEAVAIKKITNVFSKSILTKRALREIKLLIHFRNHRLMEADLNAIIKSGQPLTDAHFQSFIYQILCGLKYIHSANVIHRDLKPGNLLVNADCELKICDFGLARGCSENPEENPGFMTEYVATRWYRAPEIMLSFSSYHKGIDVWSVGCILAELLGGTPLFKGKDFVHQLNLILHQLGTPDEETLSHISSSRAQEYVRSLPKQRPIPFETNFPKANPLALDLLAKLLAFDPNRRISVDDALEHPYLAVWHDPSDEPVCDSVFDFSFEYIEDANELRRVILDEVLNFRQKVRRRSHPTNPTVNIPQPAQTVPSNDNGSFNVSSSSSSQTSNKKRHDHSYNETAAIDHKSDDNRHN

[3] = target: T3, Pmk1^Sp–HA (S. pombe wild-type Pmk1 construct) (S. pombe) (UniProt Q92398)
T3 sequence: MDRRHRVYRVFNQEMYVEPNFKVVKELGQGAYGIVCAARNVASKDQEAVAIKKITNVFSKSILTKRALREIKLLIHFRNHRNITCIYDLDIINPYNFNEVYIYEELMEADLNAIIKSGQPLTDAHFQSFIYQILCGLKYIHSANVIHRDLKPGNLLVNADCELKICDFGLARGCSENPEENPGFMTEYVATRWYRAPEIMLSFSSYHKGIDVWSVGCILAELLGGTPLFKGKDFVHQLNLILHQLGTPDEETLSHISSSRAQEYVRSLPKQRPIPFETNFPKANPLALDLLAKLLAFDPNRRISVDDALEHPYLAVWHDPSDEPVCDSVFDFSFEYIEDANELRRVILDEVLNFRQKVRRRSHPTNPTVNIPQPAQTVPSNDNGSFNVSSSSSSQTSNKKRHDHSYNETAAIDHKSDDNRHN

binding [1]: binds | binding [2]: no binding | binding [3]: binds
B1: Pek1–GFP (MAPKK) genomic fusion (enzyme, UniProt Q9Y884 1-363)
chain: MSKKPVLNLDTSNGFSEEYISHPERNDNQGIVEITDLVFSSESKLTQRKESRDSKTFVPSFLEELDDDHLHELVTNGGILYMNSLGEGVSGSVRKCRIRGTQMIFAMKTVLAAPNTALQKQLLRELKINRSCTSPYIVKYYGACYNNAECQLNIAMEYCGAGSLDAIYKRVRSQGGRTGERPLGKIAFGVLSGLSYLHDRKIIHRDIKPSNILLTSKGQVKLCDFGVSGELVNSLAGTFTGTSYYMAPERISGGSYTISSDIWSLGLTLMEVALNRFPFPPEGSPPPMPIELLSYIINMPPPLLPQEPGIKWSKSFQHFLCVCLDKDKTRRPGPQKMLTHPWVKAFERIHVDMEEFLRQVWSD
